Assay results from patent US7273847B2, “Peptides with antioxidant and antimicrobial properties” (priority 2000, dated 2007).

Experiment: Aggregation of J5 LPS vesicles
Design: species or system E. coli
Settings: not shown

Substance: SP-A: Native surfactant protein A isolated from the alveolar wash of silica-pretreated rats
- Aggregation of E. coli J5 LPS: inhibited the aggregation
- Established aggregation by J5 LPS vesicles: did not reverse established aggregation
